Data taken from PubChem BioAssay AID504327 (National Center for Advancing Translational Sciences (NCATS), 2011).
The whole screen tested about 390,000 compounds, of which about 820 (0.21%) were called active. This list was built around the results that the source calls inconclusive (neither active nor inactive); the mix of calls is not that of the screen. The call rests on the fitted dose curve; in most records, active means well fitted inhibition curve with a large enough effect; inconclusive means small, poorly fitted or top-dose-only effect, or another doubt; inactive means no such curve, though single readings can be large or run the other way. Potencies of inconclusive entries are doubtful fits and often do not repeat.
On the % scale 0 is the no-effect control and ±100 the full control effect; potency means the concentration at half of the fitted maximal effect.

Sequences of proteins named here, by UniProt entry; tags and fusion partners are left off.
UniProt Q92830, whole entry, looked up: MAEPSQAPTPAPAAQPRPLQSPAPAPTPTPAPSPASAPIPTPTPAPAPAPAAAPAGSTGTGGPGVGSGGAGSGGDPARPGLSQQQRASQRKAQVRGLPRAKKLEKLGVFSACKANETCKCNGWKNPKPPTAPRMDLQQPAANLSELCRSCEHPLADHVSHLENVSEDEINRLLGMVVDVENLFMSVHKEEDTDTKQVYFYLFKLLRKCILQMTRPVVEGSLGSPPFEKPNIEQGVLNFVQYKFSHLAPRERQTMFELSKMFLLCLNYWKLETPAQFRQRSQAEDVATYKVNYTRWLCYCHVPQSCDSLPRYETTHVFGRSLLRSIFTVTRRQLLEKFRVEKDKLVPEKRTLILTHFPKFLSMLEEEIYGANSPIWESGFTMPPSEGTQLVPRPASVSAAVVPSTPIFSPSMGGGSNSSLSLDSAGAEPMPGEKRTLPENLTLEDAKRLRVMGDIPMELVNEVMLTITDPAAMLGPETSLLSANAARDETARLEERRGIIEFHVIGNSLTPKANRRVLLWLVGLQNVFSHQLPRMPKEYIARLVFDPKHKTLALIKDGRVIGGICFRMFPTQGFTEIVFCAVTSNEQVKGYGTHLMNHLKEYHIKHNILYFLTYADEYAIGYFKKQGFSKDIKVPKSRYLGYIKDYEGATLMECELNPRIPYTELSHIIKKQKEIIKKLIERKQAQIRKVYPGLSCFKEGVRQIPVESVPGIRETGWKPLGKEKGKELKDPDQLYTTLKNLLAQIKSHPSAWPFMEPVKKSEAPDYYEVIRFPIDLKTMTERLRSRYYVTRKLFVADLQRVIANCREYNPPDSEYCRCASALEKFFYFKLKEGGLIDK

The molecules below were run against Histone acetyltransferase KAT2A (Homo sapiens) (UniProt Q92830) (assay: qHTS Assay for Inhibitors of GCN5L2). Settings: GCN5L2 HAT assay, ThioGlo1 CoA-SH fluorescence; activity change, negative = inhibition: at 58.9 µM (top of the series) unless noted.
Method in brief: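 Preincubate 20nM GCN5L2 with compound 15 min, RT → add 50uM ThioGlo1 + 75uM H3(1-25) + 70uM acetyl-CoA → read fluorescence 0 and 20 min. Primary qHTS; fluorescent artifacts likely.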
With `CCOc1cc(/C=N/NC(=O)CN2CCCCC2)ccc1OCc1ccccc1` the Potency was inconclusive: 1 µM [inhibitor, partial curve, poor fit].
In the case of `O=C(Nc1cccnc1)c1cc(-c2ccco2)on1`, the Potency is reported as inconclusive: 0.355 µM [inhibitor, partial curve, poor fit].
In the case of `O=C(CSc1nc(-c2ccccc2)[nH]c1-c1ccccc1)Nc1ccc2c(c1)OCCO2`, the “activity change, negative = inhibition” value is reported as inactive: -9.45%.
With `CCOC(=O)c1c(C)oc2c1c1c(c3ccccc32)OCN(CCCC(=O)O)C1` the Potency was inconclusive: 2.82 µM [inhibitor, partial curve].
In the case of `COc1ccc(OC)c(S(=O)(=O)n2nnc3cc(Cl)ccc32)c1`, the Potency is reported as inconclusive: 39.8 µM [inhibitor, single point].
In the case of `Cc1[nH][nH]c(=O)c1C(c1ccc([N+](=O)[O-])cc1)c1c(C)[nH][nH]c1=O`, the Potency is reported as inconclusive: 31.6 µM [inhibitor, partial curve].
In the case of `N#Cc1ccccc1-c1cncnc1NCc1cccnc1`, the “activity change, negative = inhibition” value is reported as inactive: -21.6%.
With `O=C(NCC(c1ccco1)N1CCc2ccccc2C1)c1ccc(Br)cc1` (configuration not stated) the “activity change, negative = inhibition” value was inactive: -9.45%.
For `Cc1ccc(NC(=O)C(Cc2ccccc2)N2C(=O)C3C4CCC(C4)C3C2=O)cc1Cl` (configuration not stated), the Potency was inconclusive: 0.447 µM [inhibitor, full curve, poor fit].
For `Cc1ccc(OCCNC(=O)c2ccccc2SCC(=O)N2CCCC2)cc1`, the “activity change, negative = inhibition” value was inactive: 4.32%.
With `COC(=O)c1ccc(NC(C)=O)o1` the Potency was inconclusive: 12.6 µM [inhibitor, single point].
In the case of `CCOc1ccc(S(=O)(=O)N(CC(=O)N/N=C/c2cccs2)c2ccc(C)cc2)cc1`, the Potency is reported as inconclusive: 22.4 µM [inhibitor, partial curve].
`Cc1nn(CC(=O)NCCc2ccccc2Cl)c(=O)c2nn(-c3ccccc3)c(C)c12` was tested, and the Potency was inconclusive: 25.1 µM [inhibitor, partial curve].
In the case of `N=c1c2c(-c3ccccc3)c(-c3ccccc3)n(Cc3ccco3)c2ncn1Cc1ccccc1`, the Potency is reported as inconclusive: 39.8 µM [inhibitor, single point].
`O=C(c1ccc2nc(Cc3cccc(Cl)c3)oc2c1)N1CCOCC1` was tested, and the Potency was inconclusive: 39.8 µM [inhibitor, single point].
`Cc1ccc(-c2nn(C)c(=O)c3ccccc23)cc1CNC(=O)NC1CCCCC1` was tested, and the “activity change, negative = inhibition” value was inactive: 1.92%.
For `O=C(Nc1ccc(Cl)cc1)N1CCN(C(=O)C2CCCO2)CC1` (configuration not stated), the Potency was inconclusive: 3.16 µM [inhibitor, full curve, poor fit].
With `COc1ccccc1NNC(=O)c1cccnc1Oc1ccccc1` the “activity change, negative = inhibition” value was inactive: -1.51%.
With `Cc1cc(NC(=O)COc2cccc([N+](=O)[O-])c2)no1` the Potency was inconclusive: 1 µM [inhibitor, full curve, poor fit].
In the case of `COc1cccc(/C=C(/C#N)c2ccc(Cl)cc2)c1OCc1cccc(C(=O)O)c1`, the Potency is reported as inconclusive: 39.8 µM [inhibitor, single point].
`CC(=O)N1CCSc2ccc(S(=O)(=O)NCCc3ccc(Cl)cc3)cc21` was tested, and the Potency was inconclusive: 0.1 µM [inhibitor, full curve, poor fit].
`Cc1cccc(CCNC(=O)CCS(=O)(=O)c2cc3c(cc2Cl)NC(=O)CO3)c1` was tested, and the Potency was inconclusive: 0.316 µM [inhibitor, full curve, poor fit].
For `CC(C)CC(=O)Nc1ccc(-c2cn3cccnc3n2)cc1`, the Potency was inconclusive: 22.4 µM [inhibitor, single point].
In the case of `CN(C)S(=O)(=O)n1cc(/C=C(\NC(=O)c2ccccc2)C(=O)NCCCN2CCOCC2)c2ccccc21`, the Potency is reported as inconclusive: 8.91 µM [inhibitor, partial curve].
`C=CC[n+]1c(-c2ccc(C)cc2)csc1NNC(=O)Nc1ccccc1` was tested, and the Potency was inconclusive: 3.55 µM [inhibitor, single point].
`Cc1ccc(S(=O)(=O)N2[C@@H](c3ccc(C(C)(C)C)cc3)C(C(=O)O)=CC[C@H]2c2ccc(Cl)cc2)cc1` was tested, and the Potency was inconclusive: 25.1 µM [inhibitor, single point].
`CCN(CC)c1ccc2c(-c3ccc(S(=O)(=O)O)cc3S(=O)(=O)[O-])c3ccc(=[N+](CC)CC)cc-3oc2c1` was tested, and the Potency was inconclusive: 14.1 µM [inhibitor, partial curve].
`Cc1ccc(C2C3=C(CC(C)(C)CC3=O)OC3=C2C(=O)CC(C)(C)C3)cc1` was tested, and the “activity change, negative = inhibition” value was inactive: -1.7%.
With `COc1cc2c(C(=O)N3CCN(C)CC3)c(C)oc2cc1Br` the Potency was inconclusive: 20 µM [inhibitor, single point].
For `CCCCNC(=O)c1ccc2c(OCC)n(CCCC)nc2c1`, the Potency was inconclusive: 20 µM [inhibitor, single point].
`Cc1cc(C)cc(NC(=O)Nn2cnnc2)c1` was tested, and the Potency was inconclusive: 0.141 µM [inhibitor, full curve, poor fit].
`O=c1c(Cl)c(N2CCCCC2)cnn1-c1nc2ccccc2[nH]1` was tested, and the “activity change, negative = inhibition” value was inactive: -20.5%.
In the case of `Cc1cc(C)cc(C(=O)N2CC(=O)Nc3ccc(C)cc3C2c2ccccc2)c1` (configuration not stated), the “activity change, negative = inhibition” value is reported as inactive: -10.1%.
For `CCCn1c(SCC(=O)N2CCCC(C)C2)nnc1-c1cccnc1` (configuration not stated), the Potency was inconclusive: 8.91 µM [inhibitor, single point].
With `c1ccc(C(c2cccs2)c2c[nH]c3ccccc23)cc1` (configuration not stated) the “activity change, negative = inhibition” value was inactive: -4.5%.
In the case of `CCN(CC(=O)Nc1c(F)cccc1F)C(=O)CN1C(=O)NC2(CCCC2)C1=O`, the Potency is reported as inconclusive: 0.126 µM [inhibitor, full curve, poor fit].
With `COc1ccc(CC(=O)N/N=C/C=C/c2ccc3c(c2)OCO3)cc1OC` the Potency was inconclusive: 0.794 µM [inhibitor, full curve, poor fit].
With `Cc1c(C(=O)NCc2ccc(Cl)cc2)sc2nc3n(c(=O)c12)CCCC3` the Potency was inconclusive: 35.5 µM [inhibitor, single point].
`COc1ccc(CNC(=O)COC(=O)c2cc(-c3ccco3)nc3ccccc23)cc1` was tested, and the Potency was inconclusive: 39.8 µM [inhibitor, single point].
With `O=C(COc1cccc(NC(=O)c2ccco2)c1)c1ccc(F)cc1` the “activity change, negative = inhibition” value was inactive: 3.81%.
With `CCCOc1cccc(C(=O)NCCCNC(=O)c2ccccn2)c1` the Potency was inconclusive: 5.62 µM [inhibitor, full curve, poor fit].
With `COc1ccc(C(=O)NCCc2nnc3ccc(SCC(=O)NCc4ccccc4)nn23)cc1` the “activity change, negative = inhibition” value was inactive: -23.5%.
